Record: PubChem BioAssay AID1259298 (Sanger Institute, 2017)

- Test: 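Kinase knock-downs that cut colorectal cancer cell viability or act with targeted drugs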 (primary screen)
- Cells: HT55 human colorectal cancer cell line
- Reagent: siRNA pool against human genes
- Challenge: anchor drug BYL719 1 µM, cetuximab 5 µg/ml or trametinib 10 nM, or DMSO vehicle alone
- Read-out: 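Mean viability over replicates versus non-targeting pool, a robust z-score without drug, and per-drug synergy scores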
- Direction: robust z-score, knock-down alone: higher = more cells remaining; low means essential gene
- Active means: 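Essential when the robust z-score for knock-down alone with DMSO is below -3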
- Meaning of the calls: active = essential (knock-down alone); inactive = no change alone
In all, the deposit lists 794 reagents; this is a random part of them. Over the whole deposit, 20 (2.5%) are marked active. 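Calls rest only on the knock-down-alone score; drug synergy scores played no part in them.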 Unmarked entries are inactive. The numbers tell different reagents against one gene apart. Further read-outs or replicates are left out here. The record does not give: the amount of reagent, the time to read-out.

Silencing of RET resulted in: robust z-score, knock-down alone 0.58.
For NUP98, the entry reads robust z-score, knock-down alone -3.61 (active).
After knock-down of MYO3B, the record shows robust z-score, knock-down alone -0.806.
BRDT gave robust z-score, knock-down alone 0.58.
LTK showed robust z-score, knock-down alone 0.138.
With knock-down of IKBKG the results were robust z-score, knock-down alone 0.248.
Silencing of ERN1 resulted in: robust z-score, knock-down alone -1.36.
Knock-down of HIPK3 came out at: robust z-score, knock-down alone -0.66.
NPR2 showed robust z-score, knock-down alone 0.58.
Against PIK3R3 the deposit lists robust z-score, knock-down alone 0.58.
Knock-down of BRSK1 resulted in: robust z-score, knock-down alone -0.191.
SOX9 scored robust z-score, knock-down alone 0.58.
FXR1 showed robust z-score, knock-down alone 0.58.
For NR4A2, the entry reads robust z-score, knock-down alone -1.51.
Silencing of MAP3K8 resulted in: robust z-score, knock-down alone -0.624.
Knock-down of EPHA3 gave: robust z-score, knock-down alone -0.634.
CAMK2B scored robust z-score, knock-down alone 0.58.
IKBKB scored robust z-score, knock-down alone 0.58.
With knock-down of FGR the results were robust z-score, knock-down alone 0.211.
For CRKL, the values are robust z-score, knock-down alone 0.58.
For MARK3, the entry reads robust z-score, knock-down alone 0.0958.
Silencing of HK2 gave: robust z-score, knock-down alone 0.58.
GTF2H1 gave robust z-score, knock-down alone -0.91.
Against TAOK2, the entry reads robust z-score, knock-down alone 0.58.
STK31 gave robust z-score, knock-down alone 0.58.
Against PKN3 the deposit lists robust z-score, knock-down alone 0.485.
MVK showed robust z-score, knock-down alone 0.58.
With knock-down of STK24 the results were robust z-score, knock-down alone 0.58.
After knock-down of CDADC1, the record shows robust z-score, knock-down alone 0.58.
Silencing of EPHB6 resulted in: robust z-score, knock-down alone 0.58.
TESK1 scored robust z-score, knock-down alone 0.58.
Silencing of ILK #1 came out at: robust z-score, knock-down alone 0.58.
ILK #2 gave robust z-score, knock-down alone 0.0615.
For PTK2, the entry reads robust z-score, knock-down alone -1.62.
TAB1 gave robust z-score, knock-down alone 0.58.
MAP2K6 showed robust z-score, knock-down alone 0.58.
